Measured values taken from PubChem BioAssay (NCATS).
This list was built around the results that the source calls inconclusive (neither active nor inactive); the mix of calls is not that of the screen. For some assays here: Potencies beside an inconclusive call are fits to weak or partial responses and may not hold up. Active and inactive are the calls of the source. Unless noted, calls come from the whole dose curve; as a rule, active = well fitted curve in the direction sought with a large enough effect; inconclusive = small, poorly fitted or top-dose-only effect, or another doubt; inactive = no such curve, though single readings can be large; an effect the other way counts as inactive or inconclusive.

How the values were obtained:
[1] = Quantitative High-Throughput drug screen in 47 multiple myeloma cell lines against the NCATS MIPE library collection: JJN3_DSMZ cell viability assay (AID 1918966; note: potency is the fitted concentration of half-maximal effect; nearly all actives have a fitted effect of over 50% in size)
In short: (§1)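 Inhibition of cell viability is measured here. Each line was plated at 500 cells per well, treated with MIPE 4.0 drugs, kept 48 hours at 37C, then assayed for ATP content by CellTiter-Glo luminescence.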

[2] = Quantitative High-Throughput drug screen in 47 multiple myeloma cell lines against the NCATS MIPE library collection: H1112_PLB cell viability assay (AID 1918967; note: potency is the fitted concentration of half-maximal effect; nearly all actives have a fitted effect of over 30% in size)
In short: as §1

[3] = Quantitative High-Throughput drug screen in 47 multiple myeloma cell lines against the NCATS MIPE library collection: KMS27_JCRB cell viability assay (AID 1918970); conditions: KMS27 myeloma cells, CellTiter-Glo ATP viability, 48 h; viability (% of DMSO): at 45.8 µM (top of the series); note: potency is the fitted concentration of half-maximal effect; nearly all actives have a fitted effect of over 30% in size
In short: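 Each line is seeded at 500 cells per well and treated with library compounds for 48 hours under 37 °C, 5% CO2. CellTiter-Glo is then added for 5 min at room temperature before median relative luminescence is recorded.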

[4] = Quantitative High-Throughput drug screen in 47 multiple myeloma cell lines against the NCATS MIPE library collection: KMS12PE_JCRB cell viability assay (AID 1918972); note: potency is the fitted concentration of half-maximal effect; nearly all actives have a fitted effect of over 30% in size
In short: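 Viability readout: CellTiter-Glo luminescence following 5 min room-temperature incubation with reagent. Prior exposure: 48 h, 37C, humidified 5% CO2, 500 cells per well.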

[5] = Quantitative High-Throughput drug screen in 47 multiple myeloma cell lines against the NCATS MIPE library collection: KMS20_JCRB cell viability assay (AID 1918973); conditions: CellTiter-Glo ATP, 48 h; viability (% of DMSO): at 45.8 µM (top of the series); note: potency is the fitted concentration of half-maximal effect; nearly all actives have a fitted effect of over 45% in size
In short: as §1

[6] = Quantitative High-Throughput drug screen in 47 multiple myeloma cell lines against the NCATS MIPE library collection: KMS21BM_JCRB cell viability assay (AID 1918974); conditions: ATP luminescence, 48 h; viability: at 45.8 µM (top of the series); note: potency is the fitted concentration of half-maximal effect
In short: as §1

[7] = Quantitative High-Throughput drug screen in 47 multiple myeloma cell lines against the NCATS MIPE library collection: MOLP8_DSMZ cell viability assay (AID 1918977); note: potency is the fitted concentration of half-maximal effect; nearly all actives have a fitted effect of over 45% in size
In short: (§2)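 Cells were exposed to library compounds for 48 hours, after which ATP was measured by CellTiter-Glo. Signal was taken as median relative luminescence units.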

[8] = Quantitative High-Throughput drug screen in 47 multiple myeloma cell lines against the NCATS MIPE library collection: NCIH929_DSMZ cell viability assay (AID 1918978); conditions: NCI-H929 myeloma viability, CellTiter-Glo ATP, 48 h; viability, % of control: at 45.8 µM (top of the series); note: potency is the fitted concentration of half-maximal effect; nearly all actives have a fitted effect of over 35% in size
In short: as §2

[9] = Quantitative High-Throughput drug screen in 47 multiple myeloma cell lines against the NCATS MIPE library collection: MM1S_ATCC cell viability assay (AID 1918980); note: potency is the fitted concentration of half-maximal effect; nearly all actives have a fitted effect of over 45% in size
In short: as §2

[10] = Quantitative High-Throughput drug screen in 47 multiple myeloma cell lines against the NCATS MIPE library collection: LP1_DSMZ cell viability assay (AID 1918982); note: potency is the fitted concentration of half-maximal effect; nearly all actives have a fitted effect of over 35% in size
In short: as §2

[11] = Quantitative High-Throughput drug screen in 47 multiple myeloma cell lines against the NCATS MIPE library collection: L363_DSMZ cell viability assay (AID 1918984); conditions: L363 myeloma viability, CellTiter-Glo ATP luminescence, 48 h; viability (% of control): at 45.8 µM (top of the series); note: potency is the fitted concentration of half-maximal effect; nearly all actives have a fitted effect of over 40% in size
In short: as §2

[12] = Quantitative High-Throughput drug screen in 47 multiple myeloma cell lines against the NCATS MIPE library collection: OCIMY7_PLB cell viability assay (AID 1918987); note: potency is the fitted concentration of half-maximal effect; nearly all actives have a fitted effect of over 65% in size
In short: as §2

[13] = Quantitative High-Throughput drug screen in 47 multiple myeloma cell lines against the NCATS MIPE library collection: XG6_PLB cell viability assay (AID 1919865); conditions: XG6 myeloma viability, CellTiter-Glo ATP luminescence, 48 h; viability (% of control): at 45.8 µM (top of the series); note: potency is the fitted concentration of half-maximal effect; nearly all actives have a fitted effect of over 40% in size
In short: as §2

[14] = Quantitative High-Throughput drug screen in 47 multiple myeloma cell lines against the NCATS MIPE library collection: VP6_DJ cell viability assay (AID 1919867); note: potency is the fitted concentration of half-maximal effect; nearly all actives have a fitted effect of over 40% in size
In short: as §2

[15] = Quantitative High-Throughput drug screen in 47 multiple myeloma cell lines against the NCATS MIPE library collection: UTMC2_PLB cell viability assay (AID 1919868); conditions: CellTiter-Glo ATP luminescence, 48 h; viability (% of DMSO control): at 45.8 µM (top of the series);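 note: 100% = DMSO-only wells and 0% = media-only wells without cells; nearly all actives have a fitted effect of over 55% in size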
In short: as §2

[16] = Quantitative High-Throughput drug screen in 47 multiple myeloma cell lines against the NCATS MIPE library collection: PE2_PLB cell viability assay (AID 1919869); note: potency is the fitted concentration of half-maximal effect; nearly all actives have a fitted effect of over 35% in size
In short: as §2

[17] = Quantitative High-Throughput drug screen in 47 multiple myeloma cell lines against the NCATS MIPE library collection: RPMI8226_ATCC cell viability assay (AID 1919871); note: potency is the fitted concentration of half-maximal effect; nearly all actives have a fitted effect of over 30% in size
In short: as §2

[18] = Quantitative High-Throughput drug screen in 47 multiple myeloma cell lines against the NCATS MIPE library collection: OPM2_DSMZ cell viability assay (AID 1919872)
In short: as §1

[19] = Quantitative High-Throughput drug screen in 47 multiple myeloma cell lines against the NCATS MIPE library collection: KMS11_JCRBsus cell viability assay (AID 1919873); note: potency is the fitted concentration of half-maximal effect; nearly all actives have a fitted effect of over 50% in size
In short: as §2

[20] = qHTS for identification of novel therapeutic agents for treatment of microphthalmiaassociated transcription factor (MiT) renal cell carcinoma (RCC) (AID 1963991; calls by dose curve; note: potency is the fitted concentration of half-maximal effect); conditions: TFE3-RCC UOK109 viability, CellTiter-Glo, 48 h; active = Z-AUC below -0.8 in all three lines
In short: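 Curves over 11 concentrations were fitted to CellTiter-Glo luminescence, scaled between empty wells (0%) and DMSO (100%) viability. Cells were UOK109, UOK124 and UOK145 TFE3-fusion RCC lines at 500/well, exposed 48 hours at 37 C.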

KB-3-1 = assay: Cytotoxic Profiling of Annotated Libraries Using Quantitative High-Throughput Screening (AID 1296008); conditions: Five cell lines viability, CellTiter-Glo ATP luminescence, 48-72 h; max response: hits give low values; note: potency is the fitted concentration of half-maximal effect; nearly all actives have a fitted effect of over 60% in size
In short: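 Cells exposed to compounds for 48 or 72 hr at 37 degrees Celsius. Viability read as ATP-coupled luminescence with CellTiter-Glo after 10 min at room temperature.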

[21] = qHTS assay to identify inhibitors of the type 1 interferon - major histocompatibility complex class I in skeletal muscle: Counter screen cell viability and HiBit confirmation (AID 1347412); conditions: iHSKM muscle cells + IFN-b, HiBiT or CellTiter-Glo, 24 h; note: potency is the fitted concentration of half-maximal effect; nearly all actives have a fitted effect of over 60% in size
In short: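 Human myoblast knock-in line, 4.0 ng/ml IFN-beta stimulation, 24 h compound treatment. Endpoints: HiBiT lytic luminescence (HLA-B level) and CellTiter Glo (ATP). Dosing 12 concentrations, 3-fold steps, 46 uM highest final.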

MCC-13 = assay: qHTS assay to identify novel small-molecules to repurpose for Merkel cell carcinoma treatment (AID 1296009); conditions: MCC and control cell lines, CellTiter-Glo viability, 72 h; series mostly up to 46 µM; note: potency is the fitted concentration of half-maximal effect; nearly all actives have a fitted effect of over 60% in size
In short: (§3)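 Dose-response viability screen; 72 hr exposure at 37 degree celsius; CellTiter-Glo added, 10 min room temperature, luminescence read; RLUs scaled between no-cell and DMSO wells.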

MCC-26 = assay: as above; conditions: MCC and control cell lines, CellTiter-Glo viability, 72 h; activity change, negative = cytotoxicity: at 46 µM (top of the series)
In short: as §3

MKL-1 = assay: as above; conditions: MCC and control cell lines, CellTiter-Glo viability, 72 h; activity change, negative = cytotoxicity: at 46 µM (top of the series)
In short: as §3

MKL-2 = assay: as above; conditions: MCC and control cell lines, CellTiter-Glo viability, 72 h; activity change, negative = cytotoxicity: at 46 µM (top of the series)
In short: as §3

UISO = assay: as above; conditions: MCC and control cell lines, CellTiter-Glo viability, 72 h; activity change, negative = cytotoxicity: at 46 µM (top of the series)
In short: as §3

WaGa = assay: as above; conditions: MCC and control cell lines, CellTiter-Glo viability, 72 h; series mostly up to 46 µM
In short: as §3

CNC(=O)Nc1ccc(-c2nc(N3CC4CCC(C3)O4)c3cnn(C4CCC5(CC4)OCCO5)c3n2)cc1
Potency [1]: active: 11.8 nM
Potency [2]: inconclusive: 13200 nM [cytotoxic, partial curve]
Potency [3]: inconclusive: 18.7 nM [cytotoxic, full curve]
Potency [4]: active: 74.3 nM
Potency [5]: active: 10.5 nM
Potency [6]: active: 41.8 nM
Potency [7]: active: 9.3 nM
Potency [8]: inconclusive: 9.3 nM [cytotoxic, full curve]
Potency [9]: active: 14.8 nM
Potency [10]: inconclusive: 29.6 nM [cytotoxic, full curve]
Potency [11]: inconclusive: 83.3 nM [cytotoxic, full curve]
Potency [12]: active: 3720 nM
Potency [13]: inconclusive: 16.6 nM [cytotoxic, full curve]
Potency [14]: inconclusive: 23.5 nM [cytotoxic, full curve]
viability (% of DMSO control) [15]: inconclusive: 2.55% [cytotoxic]
Potency [16]: inconclusive: 13.2 nM [cytotoxic, full curve]
Potency [17]: inconclusive: 4.7 nM [cytotoxic, full curve]
Potency [18]: active: 20.9 nM
Potency [19]: inconclusive: 1050 nM [cytotoxic, partial curve]
Potency [20]: active: 41.8 nM
Potency (KB-3-1): inconclusive: 7.4 nM [inhibitor, full curve]
Potency ([21]; HiBiT): inconclusive: 35.2 nM [inhibitor, full curve]
Potency ([21]; Viability): inconclusive: 62.5 nM [cytotoxic, full curve]
Potency (MCC-13): inconclusive: 46.9 nM [inhibitor, full curve]
Potency (MCC-26): inconclusive: 148 nM [inhibitor, full curve]
Potency (MKL-1): inconclusive: 332 nM [inhibitor, full curve]
Potency (MKL-2): inconclusive: 187 nM [inhibitor, partial curve, poor fit]
Potency (UISO): inconclusive: 23.5 nM [inhibitor, full curve]
Potency (WaGa): inconclusive: 59 nM [inhibitor, full curve]
